Paper PMC6873818
These are yes or no findings as the source states them, for the method shown. Some binding calls cover weakened binding; strength is not graded here. Each block holds one molecule with its values, some of them ahead of it.

Protein sequences, listed by entry. Tags and fused reporters are not part of them.
UniProt Q7Z460: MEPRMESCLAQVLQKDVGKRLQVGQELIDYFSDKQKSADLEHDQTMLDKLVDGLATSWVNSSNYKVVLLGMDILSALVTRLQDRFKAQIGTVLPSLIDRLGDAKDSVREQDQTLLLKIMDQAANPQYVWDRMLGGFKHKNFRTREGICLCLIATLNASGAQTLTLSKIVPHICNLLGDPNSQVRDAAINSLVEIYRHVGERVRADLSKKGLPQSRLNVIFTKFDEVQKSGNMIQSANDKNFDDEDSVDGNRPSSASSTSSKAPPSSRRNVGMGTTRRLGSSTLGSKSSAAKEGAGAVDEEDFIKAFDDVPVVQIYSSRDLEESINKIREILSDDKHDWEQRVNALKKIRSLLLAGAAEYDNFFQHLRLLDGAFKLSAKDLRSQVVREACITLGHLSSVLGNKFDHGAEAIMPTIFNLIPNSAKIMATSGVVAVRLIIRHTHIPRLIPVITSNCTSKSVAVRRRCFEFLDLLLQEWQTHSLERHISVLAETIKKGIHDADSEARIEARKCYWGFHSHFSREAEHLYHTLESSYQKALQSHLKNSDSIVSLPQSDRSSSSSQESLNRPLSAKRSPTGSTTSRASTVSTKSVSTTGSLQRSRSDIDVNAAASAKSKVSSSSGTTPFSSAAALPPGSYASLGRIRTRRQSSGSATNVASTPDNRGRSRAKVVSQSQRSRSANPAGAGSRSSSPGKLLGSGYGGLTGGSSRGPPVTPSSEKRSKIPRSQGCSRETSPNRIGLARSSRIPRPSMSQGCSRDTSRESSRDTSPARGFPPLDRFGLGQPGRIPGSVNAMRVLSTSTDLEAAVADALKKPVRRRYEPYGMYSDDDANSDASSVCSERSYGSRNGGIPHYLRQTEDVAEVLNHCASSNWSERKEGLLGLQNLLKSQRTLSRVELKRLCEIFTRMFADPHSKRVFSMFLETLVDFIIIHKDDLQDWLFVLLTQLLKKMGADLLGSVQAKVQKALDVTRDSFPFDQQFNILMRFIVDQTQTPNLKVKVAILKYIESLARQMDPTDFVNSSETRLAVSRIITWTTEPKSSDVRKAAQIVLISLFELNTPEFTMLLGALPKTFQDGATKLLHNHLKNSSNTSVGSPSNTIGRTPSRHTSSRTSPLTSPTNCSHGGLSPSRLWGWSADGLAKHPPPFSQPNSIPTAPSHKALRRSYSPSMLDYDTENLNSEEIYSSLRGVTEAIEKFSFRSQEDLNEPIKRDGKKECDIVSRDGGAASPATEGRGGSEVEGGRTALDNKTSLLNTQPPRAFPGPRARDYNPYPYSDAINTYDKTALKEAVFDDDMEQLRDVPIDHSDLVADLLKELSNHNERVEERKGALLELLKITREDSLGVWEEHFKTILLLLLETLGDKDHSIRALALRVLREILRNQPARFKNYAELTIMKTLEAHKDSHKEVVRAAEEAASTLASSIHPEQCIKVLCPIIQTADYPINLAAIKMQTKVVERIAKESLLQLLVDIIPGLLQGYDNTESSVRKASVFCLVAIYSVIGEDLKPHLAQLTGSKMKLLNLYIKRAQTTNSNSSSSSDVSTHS
UniProt O00165: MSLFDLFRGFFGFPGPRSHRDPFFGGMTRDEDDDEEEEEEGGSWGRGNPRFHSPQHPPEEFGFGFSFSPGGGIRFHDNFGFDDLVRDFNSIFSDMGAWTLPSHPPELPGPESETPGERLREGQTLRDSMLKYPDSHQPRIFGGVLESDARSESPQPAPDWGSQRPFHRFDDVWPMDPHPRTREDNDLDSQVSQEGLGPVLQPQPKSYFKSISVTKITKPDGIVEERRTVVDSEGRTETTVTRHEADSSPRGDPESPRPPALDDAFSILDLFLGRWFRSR

Columns and labels:
[1] = target: T1, SLC25A5 (human (endogenous in HEK293T)) (UniProt P05141); experiment: SEC; DIF-FRAC control sample (co-fractionation mass spectrometry): clarified HEK293T lysate without RNase A, native SEC on BioSep-SEC-s4000 in PBS pH 7.2, 50 fractions, proteins of each fraction identified by LC-MS/MS; co-elution of elution profiles
T1 sequence: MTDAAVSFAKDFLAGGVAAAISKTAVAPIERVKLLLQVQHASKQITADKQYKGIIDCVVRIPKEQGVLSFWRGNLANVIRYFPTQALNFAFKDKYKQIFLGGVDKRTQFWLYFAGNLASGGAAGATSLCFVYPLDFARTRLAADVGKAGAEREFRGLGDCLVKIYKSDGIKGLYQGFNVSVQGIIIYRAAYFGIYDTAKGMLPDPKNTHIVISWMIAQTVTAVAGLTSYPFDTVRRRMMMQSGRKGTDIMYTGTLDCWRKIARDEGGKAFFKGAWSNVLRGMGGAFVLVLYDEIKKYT

[2] = target: T1, SLC25A5 (human (endogenous in HEK293T)); experiment: SEC; DIF-FRAC RNase A-treated sample (co-fractionation mass spectrometry): clarified HEK293T lysate with RNase A (80 ug, 30 min, room temperature), native SEC on BioSep-SEC-s4000 in PBS pH 7.2, 50 fractions, proteins of each fraction identified by LC-MS/MS; co-elution of elution profiles
[3] = target: T2, SPATA5 (human (endogenous in HEK293T)) (UniProt Q8NB90); experiment: SEC; DIF-FRAC control sample (co-fractionation mass spectrometry): clarified HEK293T lysate without RNase A, native SEC on BioSep-SEC-s4000 in PBS pH 7.2, 50 fractions, proteins of each fraction identified by LC-MS/MS; co-elution of elution profiles
T2 sequence: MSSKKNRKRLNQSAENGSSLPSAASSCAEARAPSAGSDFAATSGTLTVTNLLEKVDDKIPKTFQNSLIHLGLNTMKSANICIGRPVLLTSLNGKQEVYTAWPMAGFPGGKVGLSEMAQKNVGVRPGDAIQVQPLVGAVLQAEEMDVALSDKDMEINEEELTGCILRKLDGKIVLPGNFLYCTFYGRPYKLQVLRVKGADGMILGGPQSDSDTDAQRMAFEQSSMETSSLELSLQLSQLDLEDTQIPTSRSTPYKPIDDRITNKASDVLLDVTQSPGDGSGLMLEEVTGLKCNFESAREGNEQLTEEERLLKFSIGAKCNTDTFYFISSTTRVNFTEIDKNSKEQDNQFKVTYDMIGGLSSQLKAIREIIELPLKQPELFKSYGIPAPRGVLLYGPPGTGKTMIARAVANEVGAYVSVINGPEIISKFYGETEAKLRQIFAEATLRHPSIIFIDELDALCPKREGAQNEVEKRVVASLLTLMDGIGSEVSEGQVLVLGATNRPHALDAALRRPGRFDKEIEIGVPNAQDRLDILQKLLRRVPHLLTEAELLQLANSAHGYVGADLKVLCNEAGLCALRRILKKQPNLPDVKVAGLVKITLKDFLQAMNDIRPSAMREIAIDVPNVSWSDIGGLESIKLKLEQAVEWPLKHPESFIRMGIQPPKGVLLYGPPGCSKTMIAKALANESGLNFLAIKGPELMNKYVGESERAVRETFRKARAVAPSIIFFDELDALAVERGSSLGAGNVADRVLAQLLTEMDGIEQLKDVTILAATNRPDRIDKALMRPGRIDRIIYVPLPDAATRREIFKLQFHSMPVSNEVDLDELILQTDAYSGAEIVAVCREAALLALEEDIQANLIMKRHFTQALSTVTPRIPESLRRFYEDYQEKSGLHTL

[4] = target: T3, SAMM50 (human (endogenous in HEK293T)) (UniProt Q9Y512); experiment: as above
T3 sequence: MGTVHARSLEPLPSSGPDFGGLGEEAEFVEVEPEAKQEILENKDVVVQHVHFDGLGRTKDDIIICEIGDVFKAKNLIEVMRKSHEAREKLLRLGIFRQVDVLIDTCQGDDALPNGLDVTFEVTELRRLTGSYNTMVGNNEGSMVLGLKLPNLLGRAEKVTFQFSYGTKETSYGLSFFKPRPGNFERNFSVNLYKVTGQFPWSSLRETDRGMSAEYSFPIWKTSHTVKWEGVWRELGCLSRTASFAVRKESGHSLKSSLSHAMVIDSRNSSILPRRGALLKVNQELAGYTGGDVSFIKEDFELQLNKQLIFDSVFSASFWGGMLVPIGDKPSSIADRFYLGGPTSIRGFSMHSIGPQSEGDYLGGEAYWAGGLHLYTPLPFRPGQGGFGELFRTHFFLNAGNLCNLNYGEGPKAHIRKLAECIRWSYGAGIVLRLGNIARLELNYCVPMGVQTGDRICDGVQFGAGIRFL

[5] = target: T3, SAMM50 (human (endogenous in HEK293T)); experiment: SEC; DIF-FRAC RNase A-treated sample (co-fractionation mass spectrometry): clarified HEK293T lysate with RNase A (80 ug, 30 min, room temperature), native SEC on BioSep-SEC-s4000 in PBS pH 7.2, 50 fractions, proteins of each fraction identified by LC-MS/MS; co-elution of elution profiles
[6] = target: CLASP1 (human (endogenous in HEK293T)) (UniProt Q7Z460); experiment: SEC; DIF-FRAC control sample (co-fractionation mass spectrometry): clarified HEK293T lysate without RNase A, native SEC on BioSep-SEC-s4000 in PBS pH 7.2, 50 fractions, proteins of each fraction identified by LC-MS/MS; co-elution of elution profiles
[7] = target: CLASP1 (human (endogenous in HEK293T)) (UniProt Q7Z460); experiment: SEC; DIF-FRAC RNase A-treated sample (co-fractionation mass spectrometry): clarified HEK293T lysate with RNase A (80 ug, 30 min, room temperature), native SEC on BioSep-SEC-s4000 in PBS pH 7.2, 50 fractions, proteins of each fraction identified by LC-MS/MS; co-elution of elution profiles

binding [1]: binds
binding [2]: binds
Molecule: HAX1 (from UniProt O00165 1-279)

binding [3]: binds
B1: SPATA5L1 (protein, UniProt Q9BVQ7 1-753)
chain: MAPDSDPFPEGPLLKLLPLDARDRGTQRCRLGPAALHALGARLGSAVKISLPDGGSCLCTAWPRRDGADGFVQLDPLCASPGAAVGASRSRRSLSLNRLLLVPCPPLRRVAVWPVLRERAGAPGARNTAAVLEAAQELLRNRPISLGHVVVAPPGAPGLVAALHIVGGTPSPDPAGLVTPRTRVSLGGEPPSEAQPQPEVPLGGLSEAADSLRELLRLPLRYPRALTALGLAVPRGVLLAGPPGVGKTQLVRAVAREAGAELLAVSAPALQGSRPGETEENVRRVFQRARELASRGPSLLFLDEMDALCPQRGSRAPESRVVAQVLTLLDGASGDREVVVVGATNRPDALDPALRRPGRFDREVVIGTPTLKQRKEILQVITSKMPISSHVDLGLLAEMTVGYVGADLTALCREAAMHALLHSEKNQDNPVIDEIDFLEAFKNIQPSSFRSVIGLMDIKPVDWEEIGGLEDVKLKLKQSIEWPLKFPWEFVRMGLTQPKGVLLYGPPGCAKTTLVRALATSCHCSFVSVSGADLFSPFVGDSEKVLSQIFRQARASTPAILFLDEIDSILGARSASKTGCDVQERVLSVLLNELDGVGLKTIERRGSKSSQQEFQEVFNRSVMIIAATNRPDVLDTALLRPGRLDKIIYIPPPDHKGRLSILKVCTKTMPIGPDVSLENLAAETCFFSGADLRNLCTEAALLALQENGLDATTVKQEHFLKSLKTVKPSLSCKDLALYENLFKKEGFSNVEGI

binding [4]: binds
binding [5]: binds
B2: MTX3 (protein, UniProt Q5HYI7 1-312)
chain: MAAPLELSCWGGGWGLPSVHSESLVVMAYAKFSGAPLKVNVIDNTWRGSRGDVPILTTEDDMVSQPAKILNFLRKQKYNADYELSAKQGADTLAYIALLEEKLLPAVLHTFWVESDNYFTVTKPWFASQIPFPLSLILPGRMSKGALNRILLTRGQPPLYHLREVEAQIYRDAKECLNLLSNRLGTSQFFFGDTPSTLDAYVFGFLAPLYKVRFPKVQLQEHLKQLSNLCRFCDDILSSYFRLSLGGISPAGQETVDANLQKLTQLVNKESNLIEKMDDNLRQSPQLPPRKLPTLKLTPAEEENNSFQRLSP

binding [6]: binds
binding [7]: binds
B3: CLASP2 (protein, UniProt O75122 1-1294)
chain: MAMGDDKSFDDEESVDGNRPSSAASAFKVPAPKTSGNPANSARKPGSAGGPKVGGASKEGGAGAVDEDDFIKAFTDVPSIQIYSSRELEETLNKIREILSDDKHDWDQRANALKKIRSLLVAGAAQYDCFFQHLRLLDGALKLSAKDLRSQVVREACITVAHLSTVLGNKFDHGAEAIVPTLFNLVPNSAKVMATSGCAAIRFIIRHTHVPRLIPLITSNCTSKSVPVRRRSFEFLDLLLQEWQTHSLERHAAVLVETIKKGIHDADAEARVEARKTYMGLRNHFPGEAETLYNSLEPSYQKSLQTYLKSSGSVASLPQSDRSSSSSQESLNRPFSSKWSTANPSTVAGRVSAGSSKASSLPGSLQRSRSDIDVNAAAGAKAHHAAGQSVRSGRLGAGALNAGSYASLEDTSDKLDGTASEDGRVRAKLSAPLAGMGNAKADSRGRSRTKMVSQSQPGSRSGSPGRVLTTTALSTVSSGVQRVLVNSASAQKRSKIPRSQGCSREASPSRLSVARSSRIPRPSVSQGCSREASRESSRDTSPVRSFQPLASRHHSRSTGALYAPEVYGASGPGYGISQSSRLSSSVSAMRVLNTGSDVEEAVADALKKPARRRYESYGMHSDDDANSDASSACSERSYSSRNGSIPTYMRQTEDVAEVLNRCASSNWSERKEGLLGLQNLLKNQRTLSRVELKRLCEIFTRMFADPHGKRVFSMFLETLVDFIQVHKDDLQDWLFVLLTQLLKKMGADLLGSVQAKVQKALDVTRESFPNDLQFNILMRFTVDQTQTPSLKVKVAILKYIETLAKQMDPGDFINSSETRLAVSRVITWTTEPKSSDVRKAAQSVLISLFELNTPEFTMLLGALPKTFQDGATKLLHNHLRNTGNGTQSSMGSPLTRPTPRSPANWSSPLTSPTNTSQNTLSPSAFDYDTENMNSEDIYSSLRGVTEAIQNFSFRSQEDMNEPLKRDSKKDDGDSMCGGPGMSDPRAGGDATDSSQTALDNKASLLHSMPTHSSPRSRDYNPYNYSDSISPFNKSALKEAMFDDDADQFPDDLSLDHSDLVAELLKELSNHNERVEERKIALYELMKLTQEESFSVWDEHFKTILLLLLETLGDKEPTIRALALKVLREILRHQPARFKNYAELTVMKTLEAHKDPHKEVVRSAEEAASVLATSISPEQCIKVLCPIIQTADYPINLAAIKMQTKVIERVSKETLNLLLPEIMPGLIQGYDNSESSVRKACVFCLVAVHAVIGDELKPHLSQLTGSKMKLLNLYIKRAQTGSGGADPTTDVSGQS
